These are yes or no findings as the source states them, for the method shown. In cells and extracts the contact can be indirect. These calls come from enrichment with a bait or labelling near it, and not all partners need be listed.
Target: Flag-HA-CHD1L (UniProt Q86WJ1)
Test: affinity purification with mass spectrometry; tandem affinity purification of the CHD1L-containing complex from 786-O cells stably expressing Flag-HA-CHD1L; peptides analysed by mass spectrometry

By UniProt entry, the sequences of proteins in these tests, tags left out.
UniProt Q86WJ1: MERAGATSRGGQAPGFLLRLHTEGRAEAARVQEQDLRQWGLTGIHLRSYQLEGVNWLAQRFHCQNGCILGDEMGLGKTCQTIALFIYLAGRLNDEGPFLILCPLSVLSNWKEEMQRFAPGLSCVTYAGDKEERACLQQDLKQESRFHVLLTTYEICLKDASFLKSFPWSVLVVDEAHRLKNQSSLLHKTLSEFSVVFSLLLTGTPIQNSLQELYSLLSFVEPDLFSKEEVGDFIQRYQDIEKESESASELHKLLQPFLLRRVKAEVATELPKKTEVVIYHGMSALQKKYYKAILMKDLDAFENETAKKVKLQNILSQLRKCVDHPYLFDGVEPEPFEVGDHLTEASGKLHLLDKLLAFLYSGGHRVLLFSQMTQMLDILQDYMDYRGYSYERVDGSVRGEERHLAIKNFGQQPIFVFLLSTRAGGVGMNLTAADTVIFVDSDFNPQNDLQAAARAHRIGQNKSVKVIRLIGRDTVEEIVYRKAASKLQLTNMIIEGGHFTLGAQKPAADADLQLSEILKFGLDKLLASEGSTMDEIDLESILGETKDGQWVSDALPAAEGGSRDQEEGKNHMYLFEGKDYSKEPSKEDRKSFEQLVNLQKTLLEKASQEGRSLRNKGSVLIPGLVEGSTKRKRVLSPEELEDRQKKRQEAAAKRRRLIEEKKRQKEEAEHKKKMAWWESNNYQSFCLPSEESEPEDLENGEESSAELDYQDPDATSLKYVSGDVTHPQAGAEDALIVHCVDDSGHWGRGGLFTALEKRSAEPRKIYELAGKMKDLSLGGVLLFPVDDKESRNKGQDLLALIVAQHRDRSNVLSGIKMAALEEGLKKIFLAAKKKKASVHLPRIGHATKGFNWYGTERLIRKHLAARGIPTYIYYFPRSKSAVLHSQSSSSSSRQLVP
UniProt Q9NRC8: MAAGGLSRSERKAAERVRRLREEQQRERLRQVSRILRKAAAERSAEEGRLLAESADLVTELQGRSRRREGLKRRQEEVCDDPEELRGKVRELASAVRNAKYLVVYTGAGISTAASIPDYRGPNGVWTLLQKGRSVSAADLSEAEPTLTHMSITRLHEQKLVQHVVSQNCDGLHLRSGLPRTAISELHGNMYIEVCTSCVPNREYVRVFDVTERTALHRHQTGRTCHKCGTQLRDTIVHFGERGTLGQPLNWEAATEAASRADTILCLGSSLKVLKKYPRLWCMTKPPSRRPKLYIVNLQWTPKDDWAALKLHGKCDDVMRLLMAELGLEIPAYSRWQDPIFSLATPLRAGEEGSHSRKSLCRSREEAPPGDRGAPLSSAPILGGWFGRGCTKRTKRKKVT

binding: binds
Substance: SIRT7 (from UniProt Q9NRC8 1-400)

Source: PMC10493023
